Each number is a percent effect as filed. The record does not define 0% and 100%; most values in the screen are far below 50% and negative numbers occur (in some assays of this library far below -100). Compounds were drawn at random from those tested, without regard to their results.

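Assay of Toxoplasma gondii numbers, read through their beta-galactosidase reporter with a colour substrate. Tested at 10 µM. The record gives no direction; the compounds picked for IC50 retests had high values, so higher reads as fewer parasites. Size under these conditions: about 67,000 compounds, about 260 of them at 50% or above in at least one test.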

{"smiles": "COC(=O)C(c1cc(F)ccc1F)N(C)C(=O)c1ccccn1", "stereo": "centres unmarked", "percent effect": -8.014}
{"smiles": "CC(C)CCS(=O)(=O)CC(=O)N1CCCC1c1cnn(C)c1", "stereo": "centres unmarked", "percent effect": -1.312}
{"smiles": "Cc1cc(=O)[nH]c(-n2nc(C)c(CCC(=O)NCC(C)C)c2C)n1", "percent effect": 5.323}
{"smiles": "OC(COCc1ccc(Cl)cc1)CN1CC(n2cccn2)C1", "stereo": "centres unmarked", "percent effect": -0.3721}
{"smiles": "O=C(O)C(F)(F)F.O=C(O)C(F)(F)F.O=C(c1cccnc1)N1Cc2nccn2CC(COc2cccnc2)C1", "stereo": "centres unmarked", "percent effect": -0.2333}
{"smiles": "CCOCCC(=O)N1CC(=O)Nc2cc(Br)ccc21", "percent effect": 6.435}
{"smiles": "CN(C)C1COC2(CCN(S(=O)(=O)c3ccc(F)cc3)CC2)C1.O=C(O)C(F)(F)F", "stereo": "centres unmarked", "percent effect": 3.894}
{"smiles": "CN(C)CC(C)(C)Cn1cnc(-c2ccccc2)c1-c1ccncc1", "percent effect": 20.39}
{"smiles": "CN(C)C(=O)CCS(=O)(=O)Cc1ccn(-c2cccc(F)c2)n1", "percent effect": 1.299}
{"smiles": "COC(=O)C1CCN(C(=O)Cn2nc(C)nc2-c2ccccc2)CC1", "percent effect": -10.41}
{"smiles": "Cc1nnc(SCCNC(=O)c2cc(S(N)(=O)=O)ccc2F)s1", "percent effect": 0.9363}
{"smiles": "CN(C)CCN1CCOCC2(CCCN(C(=O)c3ccccn3)C2)C1.O=C(O)C(F)(F)F.O=C(O)C(F)(F)F", "stereo": "centres unmarked", "percent effect": -3.211}
{"smiles": "O=C(c1cc[nH]n1)N1CCc2ccc(S(=O)(=O)N3CCOCC3)cc2C1", "percent effect": 11.75}
{"smiles": "COC(=O)CCNC(=O)c1nnn(-c2ccc(F)cc2)c1C1CC1", "percent effect": 2.947}
{"smiles": "Cc1ccc(N2CC3(CCN(C(=O)c4ccoc4)C3)C2)nn1", "percent effect": 13.64}
{"smiles": "CCCc1nc(C)c(C(=O)NCc2ccc(C)n2C)s1", "percent effect": 11.71}
{"smiles": "CC(C)c1cccc(-n2cc(O)c(C(=O)NCCC(=O)N(C)C)n2)c1", "percent effect": -0.8999}
{"smiles": "O[C@H]1[C@H](NCCSc2ccccn2)c2ccccc2C12CCNCC2", "percent effect": -1.006}
{"smiles": "O=C1CCC2(CCNCC2)CN1Cc1nncn1CCc1ccccc1", "percent effect": -21.68}
{"smiles": "CCc1nc(CN2CCCC(N(C)Cc3cnc(C)s3)C2)no1", "stereo": "centres unmarked", "percent effect": -11.17}
{"smiles": "CCOC1COC2(CCN(Cc3ccc(F)cc3)CC2)C1.O=C(O)C(F)(F)F", "stereo": "centres unmarked", "percent effect": -11.35}
{"smiles": "CCN(Cc1nc(-c2ccco2)no1)Cc1cccc2c1OCO2", "percent effect": 12.36}
{"smiles": "Cc1cnc(N)nc1NCCSCc1[nH]cnc1C", "percent effect": -0.1729}
{"smiles": "CCSCc1ccc(C(=O)N2CCCN(CC)CC2)cc1", "percent effect": 0.6352}
{"smiles": "O=C(O)C(F)(F)F.[H][C@]12CCC[C@@]1(COCc1ccccn1)CN(C(=O)N1CCCC1)C2", "percent effect": 47.45}
{"smiles": "CC(C)(C)N1CCN(C(=O)Nc2cc(C(F)(F)F)c[nH]c2=O)CC1", "percent effect": 9.738}
{"smiles": "[H][C@]12CCN(C(=O)Nc3ccccc3C)CC[C@@]1([H])S(=O)(=O)N(CC)C2", "percent effect": -4.061}
{"smiles": "CCOc1ccccc1NC(=O)NCC(C)(O)CCSC", "stereo": "centres unmarked", "percent effect": 10.04}
{"smiles": "CN1CSC[C@H]1C(=O)N1CCC(CCc2ccccc2)CC1", "percent effect": 3.999}
{"smiles": "CNC(=O)C1CN(C(=O)Cc2ccc(OC)cc2)Cc2cn(C)nc21", "stereo": "centres unmarked", "percent effect": 0.1233}
{"smiles": "Cc1nnc(C(C)Nc2cccc(COCCc3ccccc3)c2)o1", "stereo": "centres unmarked", "percent effect": -4.646}
{"smiles": "Cc1nc(C)n(CC2CCCN(CCc3ccccn3)C2)n1", "stereo": "centres unmarked", "percent effect": 12.99}
{"smiles": "CC(C)Oc1ccc(CNC(=O)CN(C)S(C)(=O)=O)cc1F", "percent effect": 6.902}
{"smiles": "COc1c(CNCc2cccnc2N2CCN(C)CC2)c(C)nn1C", "percent effect": -0.1818}
{"smiles": "Cc1nnc(CN(C)CC(=O)NC(C)(C)c2ccc(F)cc2)n1C", "percent effect": 16.12}
{"smiles": "Cc1cc(N2CCCN(C(=O)Cc3cccnc3)CC2)ccn1", "percent effect": -22.17}
{"smiles": "CCOc1nnc(CN(C)C2CCCN(c3ccc(C)nn3)C2)s1", "stereo": "centres unmarked", "percent effect": 4.391}
{"smiles": "CSc1ncc(C(=O)N2C[C@@H](NC(C)=O)[C@H](c3ccc(C)cc3)C2)cn1", "percent effect": -0.4142}
{"smiles": "Cc1ccc(S(=O)(=O)N(C)Cc2cnccn2)cc1N(C)C", "percent effect": -4.662}
{"smiles": "CSC(C)C(=O)NCCCc1cc(N)n(-c2ccccc2)n1", "stereo": "centres unmarked", "percent effect": 0.5473}
{"smiles": "[H][C@@]12CCN(S(=O)(=O)C3CC3)[C@@]1([H])CCN2C(=O)c1cnccn1", "percent effect": 20.56}
{"smiles": "CC1CCc2nn(CCNC(=O)C3CCCC3)c(=O)cc2C1", "stereo": "centres unmarked", "percent effect": 8.662}
{"smiles": "CNc1nc(C(=O)N2CCN(c3ccc(Cl)c(Cl)c3)CC2)cs1", "percent effect": 8.61}
{"smiles": "Cl.Nc1ccc(-c2cnc(C3CCCN3)cn2)cn1", "stereo": "centres unmarked", "percent effect": 11.9}
{"smiles": "COc1ccc(CN(C)c2ccc(-c3nccn3C)nn2)cc1OC", "percent effect": 6.923}
{"smiles": "CC(C)c1nnc2n1CCN(CC(=O)Nc1nncs1)C2", "percent effect": -3.603}
{"smiles": "CC1(C)OCC2(CO1)CN(C(=O)c1ccccc1Cl)C2", "percent effect": -10.55}
{"smiles": "COCc1nc(C(=O)N2CCCC(n3ccnc3C)C2)cs1", "stereo": "centres unmarked", "percent effect": -32.15}
{"smiles": "Cn1cccc1C(=O)N1CCc2ncnc(N3CCCC3)c2CC1", "percent effect": 0.3882}

Some entries from above, unchanged:

- CN(C)C(=O)CCS(=O)(=O)Cc1ccn(-c2cccc(F)c2)n1 | 1.299%
- Cn1cccc1C(=O)N1CCc2ncnc(N3CCCC3)c2CC1 | 0.3882%
- Cc1ccc(N2CC3(CCN(C(=O)c4ccoc4)C3)C2)nn1 | 13.64%
- O=C1CCC2(CCNCC2)CN1Cc1nncn1CCc1ccccc1 | -21.68%
- COc1c(CNCc2cccnc2N2CCN(C)CC2)c(C)nn1C | -0.1818%

Measurements from “University of Dundee, Small-Polar-MMV Screening Library” (2021), ChEMBL document CHEMBL3988442.